Publication PMC4965873

Amino acid sequences for entries named in this document (tags omitted).
UniProt Q3TTA7: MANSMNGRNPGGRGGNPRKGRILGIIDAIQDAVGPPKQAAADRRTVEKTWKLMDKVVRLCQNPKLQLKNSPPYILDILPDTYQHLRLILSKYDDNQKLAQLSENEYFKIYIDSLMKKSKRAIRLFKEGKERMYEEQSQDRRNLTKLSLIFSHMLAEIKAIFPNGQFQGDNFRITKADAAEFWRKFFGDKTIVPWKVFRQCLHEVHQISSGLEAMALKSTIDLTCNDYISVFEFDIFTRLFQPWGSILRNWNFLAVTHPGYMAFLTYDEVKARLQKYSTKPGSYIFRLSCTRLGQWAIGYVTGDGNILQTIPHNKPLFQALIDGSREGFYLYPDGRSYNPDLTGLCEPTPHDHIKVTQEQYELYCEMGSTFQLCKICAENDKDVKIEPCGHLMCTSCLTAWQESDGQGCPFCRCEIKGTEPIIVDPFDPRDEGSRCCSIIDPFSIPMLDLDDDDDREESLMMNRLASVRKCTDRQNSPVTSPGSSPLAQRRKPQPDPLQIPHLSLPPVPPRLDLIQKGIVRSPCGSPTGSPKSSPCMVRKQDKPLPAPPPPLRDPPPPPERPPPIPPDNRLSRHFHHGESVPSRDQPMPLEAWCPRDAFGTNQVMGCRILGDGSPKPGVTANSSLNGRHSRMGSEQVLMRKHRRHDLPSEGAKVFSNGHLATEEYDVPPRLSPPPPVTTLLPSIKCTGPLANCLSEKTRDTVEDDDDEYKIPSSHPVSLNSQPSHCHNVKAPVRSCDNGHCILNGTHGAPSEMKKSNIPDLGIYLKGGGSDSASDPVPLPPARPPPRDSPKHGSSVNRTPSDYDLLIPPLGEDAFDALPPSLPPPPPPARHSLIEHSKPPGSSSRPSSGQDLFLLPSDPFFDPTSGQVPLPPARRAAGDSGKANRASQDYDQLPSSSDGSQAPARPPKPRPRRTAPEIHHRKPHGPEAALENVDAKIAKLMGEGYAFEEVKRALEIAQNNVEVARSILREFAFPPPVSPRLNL

B1: LAX1 (protein, UniProt Q8BHB3 1-407)
chain: MYSTPAPPEVTRRNSEPSTRQGTLGSLQGEKGQIIFPGFVVLLTIILVIIAACILWSWKKQKKRPVPYFQVAPSLTLPPPRHRAKNIYDFLPRQQTELGRHQLSGFSTESLLSRASDSPEPEAPQANGSLQMHRVSVHTVEYSVNIYDNGTVPQMCRHLASSTHHVCVRTSRSNPSISSKESNDYVNIPTVEDTCETLTRIESTPENHLGLPSALRLEFAEGGHAGCGNATDHDGFWAPGPKCSDSLSDGDDLSQTSNDYVNMTGLDLENIQENRPRGAFQCCRDYENVPWVDTNESQLPTLEEVASSTVDHREPVWRTLSSVYHMAFQPSAQSEDSAMVHREEQSSEDSSDYETVLVAELEGRDWKQGPGTQHPSDEGTPGDLAGKLCEVVYPAGSLATETSDEDA
B2: LAT (protein, UniProt O54957 1-242)
chain: MEADALSPVGLGLLLLPFLVTLLAALCVRCRELPVSYDSTSTESLYPRSILIKPPQITVPRTPAVSYPLVTSFPPLRQPDLLPIPRSPQPLGGSHRMPSSQQNSDDANSVASYENQEPACKNVDADEDEDDYPNGYLVVLPDSSPAAVPVVSSAPVPSNPDLGDSAFSVESCEDYVNVPESEESAEASLDGSREYVNVSPEQQPVTRAELASVNSQEVEDEGEEEGVDGEEAPDYENLQELN
B3: GRAP2 (protein, UniProt O89100 1-322)
chain: MEATAKFDFMASGEDELSFRTGDILKILSNQEEWLKAELGSQEGYVPKNFIDIEFPEWFHEGLSRHQAENLLMGKDIGFFIIRASQSSPGDFSISVRHEDDVQHFKVMRDTKGNYFLWTEKFPSLNKLVDYYRTTSISKQKQVFLRDGTQDQGHRGNSLDRRSQGGPHPSGTVGEEIRPSVNRKLSDHLPLGPQQFHPHQQPSPQFTPGPQPPQQQRYLQHFHQDRRGGSLDINDGHCGLGSEVNATLMHRRHTDPVQLQAAGRVRWARALYDFEALEEDELGFRSGEVVEVLDSSNPSWWTGRLHNKLGLFPANYVAPMMR
B4: UBASH3A (protein, UniProt Q3V3E1 1-624)
chain: MAAGETQLYAKVSNKLKGRSTPSLLDPLLAMGFPTHTALKALAATGRKTAEAAADWLHGHCNDPSLDDPIPQEYALFLCPTGPLLEKLQEFWRESRRQCAKNRAHEVFPHVTLCDFFTCEDQKVECLYEALRRAGDRILGSFPTLVPLVLHSSISYLGFFINDSPADAIREFAMAFATEAAVLADCTIKPCTKQLHLTLAHKFYPHHQRTLEQLAKAIQPSHSCQWTAALYSRDMRFVHYQTLKALFQYKPQNADELMLSAGDYIFVDPTQQEEASEGWAIGISHRTGCRGFLPENYTERANEADTWVKHRTYTFNLAMDLNSRKDFEASCRGNGEPHTPSMSKSVSSIQALQATISRRGILVVRHGERVDQVFGKSWLQQCTTADGKYYRPDLNFPRSLPRRSNGIKDFENDPPLSSCGIFQARLAGEALLDSGVRVTAVFASPALRCVQTAKHILEELKLEKKLKIRVEPGIFEWMKWEASKATLTFLTLEELKEANFNVDLDYRPALPRCSLMPAESYDQYVERCAVSMGQIINTCPQDMGITLIVSHSSALDSCTRPLLGLPPRECGDFAQLVRKIPSLGMCFCEENREDGKWDLVNPPVKTLTHGANSVFNWRNWISSN
B5: CD5 (receptor, UniProt P13379 24-494)
chain: QSGRGGLDIQVMLSGSNSKCQGQVEIQMENKWKTVCSSSWRLSQDHSKNAQQASAVCKQLRCGDPLALGPFPSLNRPQNQVFCQGSPWSISNCNNTSSQDQCLPLSLICLEPQRTTPPPTTTPPTTVPEPTAPPRLQLVPGHEGLRCTGVVEFYNGSWGGTILYKAKDRPLGLGNLICKSLQCGSFLTHLSGTEAAGTPAPAELRDPRPLPIRWEAPNGSCVSLQQCFQKTTAQEGGQALTVICSDFQPKVQSRLVGGSSVCEGIAEVRQRSQWEALCDSSAARGRGRWEELCREQQCGDLISFHTVDADKTSPGFLCAQEKLSQCYHLQKKKHCNKRVFVTCQDPNPAGLAPGTVASIILTLVLLVVLLAMCGPLVYKKLVKKFRQKKQRQWIGPTGVNQNMSFHRSHTATVRSQVENPTASHVDNEYSQPPRNSHLSAYPALEGALHRSSTQPDNSSDSDYDLQVAQRL
B6: EPS15L1 (protein, UniProt Q60902 1-907)
chain: MAAPLVPLSQQIPGGNPLYESYYKQVDPAYTGRVGASEAALFLKKSGLSDIILGKIWDLADPEGKGFLDKQGFYVALRLVACAQSGHEVTLSSLSLTMPPPKFHDTSSPLMATQSSAETHWAVRVEEKAKFDGIFESLLPVNGLLSGDKVKPVLMNSKLPLDVLGRVWDLSDIDKDGHLDRDEFAVAMHLVYRALEKEPVPSILPPPLIPPSKRKKTVFAGAVPVLPASPPPKDSLRSTPSHGSVSSLNSTGSLSPKHSVKQPPVAWVVPVADKMRFDEIFLKTDLDLDGYVSGQEVKEIFMHSGLTQNLLAHIWALADTRQTGKLSKEQFALAMYFIQQKVSKGIDPPQVLSPDMVPPSERGTPIPDSSSTLASGEFTGVKELDDISQEIAQLQREKYSLEQDIREKEEAIRQKTSEVQELQNDLDRETSSLQELEAQKQDAQDRLDEMDQQKAKLRDMLSDVRQKCQDETQTISSLKTQIQSQESDLKSQEDDLNRAKSELNRLQQEETQLEQSIQAGRAQLETILRSLKCTQDDINQARSKLSQLQESHLEAHRSLEQYDQVPDGVSGTSLPDLATLNEGILLAERGGFGAMDDPFKNKALLFSNNSQELHPDPFQAEDPFKSDPFKGADPFKGDPFQSDPFSEQQTAATDPFGGDPFKESDPFHSSSSDDFFKKQTKNDPFTSDPFTKNPSLPSKLDPFESSDPFSSSSISSKGSDPFGTLDPFGSSSFSSAEGFADFSQMSKPPPSGPFSSSLGGTGFSDDPFKSKQDTPALPPKKPAPPRPKPPSGQSTPVSQLGSSDFPESPDPFQPLGADSGDPFQNKKGFGDPFSGKDPFAPSSSAKPPKTSSSGFADFTSFGNEEQQLAWAKRESEKAEQERLARLRRQEQEDLELAIALSKADMPA
B7: ANKRD13A (protein, UniProt Q80UP5 1-588)
chain: MSSARDTSSRFPLHLLVWNNDYEQLEKELRDQNAEALDPRGRTLLHLAVSLGHLESARVLLRHKADVTKENGQGWTVLHEAVSTGDPEMVYTVLQHRDYHNTSMALEGVPELLHKILEAPDFYVQMKWEFTSWVPLVSRICPNDVCRIWKSGAKLRVDITLLGFENMSWIRGRRSFIFKGGDNWAELMEVNHDDRVVTTEHFDLSQEMERLTLDLMKPKSREVERRLTSPVINTSLDTKNVAFERTKSGFWGWRTDKAEVVNGYEAKVYSVNNVSVITRIRTEHLTEEEKKRYKEDRNPLESLLGTVEHQFGAQGDLATECATVNNPTAITPDEYFDEDFDLKDRDIGRPKELTIRTQKFKATLWMCEEFPLSLVEQVIPIIDLMARTSAHFARLRDFIKLDFPPGFPVKIEIPLFHVLNARITFGNVNGCSTADESQGVEGTPAEAVSEATNFEVDQSVFEIPESYHIQDNGRNVHLQDEDYEIMQFAIQQSLLESSRSQDLSGPASNGGVSHTHSYEAQYERAIQESLLTNMEGRCPGGLSESSRFDSDLQLAMELSAKELAERELRLQEEEAELQQVLQLSLTEK

target: CBL-OST (mouse) (UniProt P22682); assay: affinity purification with mass spectrometry; CBL-OST or CBLB-OST captured on Strep-Tactin Sepharose (1.5 h, 4°C) from postnuclear lysates (n-dodecyl-β-maltoside) of short-term expanded mouse CD4+ T cells, unstimulated or 30, 120, 300, 600 s after anti-CD3 + anti-CD4 cross-linking; eluted with 2.5 mM D-biotin; label-free LC-MS/MS against wild-type cells as control

| binding | Binder |
| --- | --- |
| no binding | B1 |
| no binding | B2 |
| binds | B3 |
| binds | B4 |
| binds | B5 |
| binds | B6 |

target: CBLB-OST (mouse) (UniProt Q3TTA7); assay: as above

| binding | Binder |
| --- | --- |
| binds | B7 |
| binds | B1 |
| binds | B2 |
| binds | B3 |
| binds | B4 |
| binds | B5 |
| binds | B6 |

These are yes or no findings as the source states them, for the method shown. In cells and extracts the contact can be indirect. Here binding means that the protein was enriched with, or labelled near, the bait; the list need not be complete. For some of these results: A no says only that the protein was not detected with the bait.
